The source of these data is PMC10743813.

The chains behind the UniProt entries cited, without tags or fusion partners. Where a name states a change or a piece, a line headed by the entry shows the natural chain unless it says otherwise.
UniProt Q245Y8: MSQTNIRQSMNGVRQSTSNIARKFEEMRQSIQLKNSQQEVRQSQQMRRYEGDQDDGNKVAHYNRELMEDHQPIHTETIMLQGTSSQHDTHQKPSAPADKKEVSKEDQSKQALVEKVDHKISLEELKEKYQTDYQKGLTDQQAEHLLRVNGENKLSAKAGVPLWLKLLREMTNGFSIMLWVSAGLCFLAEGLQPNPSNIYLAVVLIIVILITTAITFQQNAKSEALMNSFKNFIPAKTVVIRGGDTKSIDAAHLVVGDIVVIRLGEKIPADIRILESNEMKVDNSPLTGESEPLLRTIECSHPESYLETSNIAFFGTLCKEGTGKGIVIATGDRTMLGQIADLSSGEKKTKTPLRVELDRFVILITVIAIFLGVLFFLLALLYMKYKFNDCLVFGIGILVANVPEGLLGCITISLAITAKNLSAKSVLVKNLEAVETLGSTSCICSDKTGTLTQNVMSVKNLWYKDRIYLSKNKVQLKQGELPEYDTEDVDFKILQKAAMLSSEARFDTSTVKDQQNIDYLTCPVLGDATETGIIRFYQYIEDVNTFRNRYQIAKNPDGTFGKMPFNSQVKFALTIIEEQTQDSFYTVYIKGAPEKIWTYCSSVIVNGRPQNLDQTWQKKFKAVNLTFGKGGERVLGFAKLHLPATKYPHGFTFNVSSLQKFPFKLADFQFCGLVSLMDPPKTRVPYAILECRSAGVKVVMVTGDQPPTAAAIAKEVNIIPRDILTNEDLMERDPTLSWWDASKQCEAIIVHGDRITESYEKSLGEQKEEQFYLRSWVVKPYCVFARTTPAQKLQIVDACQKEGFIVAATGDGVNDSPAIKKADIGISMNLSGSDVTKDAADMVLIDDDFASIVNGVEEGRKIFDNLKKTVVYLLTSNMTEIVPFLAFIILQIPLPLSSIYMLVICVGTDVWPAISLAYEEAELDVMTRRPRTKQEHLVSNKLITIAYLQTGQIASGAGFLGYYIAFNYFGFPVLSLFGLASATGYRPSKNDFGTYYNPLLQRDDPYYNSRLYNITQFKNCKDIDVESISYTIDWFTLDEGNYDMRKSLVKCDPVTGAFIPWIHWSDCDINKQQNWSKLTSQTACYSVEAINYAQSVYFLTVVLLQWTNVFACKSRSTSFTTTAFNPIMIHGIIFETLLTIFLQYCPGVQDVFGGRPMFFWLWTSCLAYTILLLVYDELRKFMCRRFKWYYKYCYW
UniProt I7MAA0: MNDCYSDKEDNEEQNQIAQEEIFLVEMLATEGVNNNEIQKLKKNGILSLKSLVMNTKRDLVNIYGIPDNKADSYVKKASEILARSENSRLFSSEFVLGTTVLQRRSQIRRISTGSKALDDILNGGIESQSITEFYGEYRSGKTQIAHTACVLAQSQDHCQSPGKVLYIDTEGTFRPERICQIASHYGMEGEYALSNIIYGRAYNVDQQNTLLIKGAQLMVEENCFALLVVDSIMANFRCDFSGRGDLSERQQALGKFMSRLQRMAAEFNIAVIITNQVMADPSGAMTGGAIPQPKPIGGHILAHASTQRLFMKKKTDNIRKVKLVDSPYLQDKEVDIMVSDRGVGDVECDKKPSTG
UniProt I7MM90: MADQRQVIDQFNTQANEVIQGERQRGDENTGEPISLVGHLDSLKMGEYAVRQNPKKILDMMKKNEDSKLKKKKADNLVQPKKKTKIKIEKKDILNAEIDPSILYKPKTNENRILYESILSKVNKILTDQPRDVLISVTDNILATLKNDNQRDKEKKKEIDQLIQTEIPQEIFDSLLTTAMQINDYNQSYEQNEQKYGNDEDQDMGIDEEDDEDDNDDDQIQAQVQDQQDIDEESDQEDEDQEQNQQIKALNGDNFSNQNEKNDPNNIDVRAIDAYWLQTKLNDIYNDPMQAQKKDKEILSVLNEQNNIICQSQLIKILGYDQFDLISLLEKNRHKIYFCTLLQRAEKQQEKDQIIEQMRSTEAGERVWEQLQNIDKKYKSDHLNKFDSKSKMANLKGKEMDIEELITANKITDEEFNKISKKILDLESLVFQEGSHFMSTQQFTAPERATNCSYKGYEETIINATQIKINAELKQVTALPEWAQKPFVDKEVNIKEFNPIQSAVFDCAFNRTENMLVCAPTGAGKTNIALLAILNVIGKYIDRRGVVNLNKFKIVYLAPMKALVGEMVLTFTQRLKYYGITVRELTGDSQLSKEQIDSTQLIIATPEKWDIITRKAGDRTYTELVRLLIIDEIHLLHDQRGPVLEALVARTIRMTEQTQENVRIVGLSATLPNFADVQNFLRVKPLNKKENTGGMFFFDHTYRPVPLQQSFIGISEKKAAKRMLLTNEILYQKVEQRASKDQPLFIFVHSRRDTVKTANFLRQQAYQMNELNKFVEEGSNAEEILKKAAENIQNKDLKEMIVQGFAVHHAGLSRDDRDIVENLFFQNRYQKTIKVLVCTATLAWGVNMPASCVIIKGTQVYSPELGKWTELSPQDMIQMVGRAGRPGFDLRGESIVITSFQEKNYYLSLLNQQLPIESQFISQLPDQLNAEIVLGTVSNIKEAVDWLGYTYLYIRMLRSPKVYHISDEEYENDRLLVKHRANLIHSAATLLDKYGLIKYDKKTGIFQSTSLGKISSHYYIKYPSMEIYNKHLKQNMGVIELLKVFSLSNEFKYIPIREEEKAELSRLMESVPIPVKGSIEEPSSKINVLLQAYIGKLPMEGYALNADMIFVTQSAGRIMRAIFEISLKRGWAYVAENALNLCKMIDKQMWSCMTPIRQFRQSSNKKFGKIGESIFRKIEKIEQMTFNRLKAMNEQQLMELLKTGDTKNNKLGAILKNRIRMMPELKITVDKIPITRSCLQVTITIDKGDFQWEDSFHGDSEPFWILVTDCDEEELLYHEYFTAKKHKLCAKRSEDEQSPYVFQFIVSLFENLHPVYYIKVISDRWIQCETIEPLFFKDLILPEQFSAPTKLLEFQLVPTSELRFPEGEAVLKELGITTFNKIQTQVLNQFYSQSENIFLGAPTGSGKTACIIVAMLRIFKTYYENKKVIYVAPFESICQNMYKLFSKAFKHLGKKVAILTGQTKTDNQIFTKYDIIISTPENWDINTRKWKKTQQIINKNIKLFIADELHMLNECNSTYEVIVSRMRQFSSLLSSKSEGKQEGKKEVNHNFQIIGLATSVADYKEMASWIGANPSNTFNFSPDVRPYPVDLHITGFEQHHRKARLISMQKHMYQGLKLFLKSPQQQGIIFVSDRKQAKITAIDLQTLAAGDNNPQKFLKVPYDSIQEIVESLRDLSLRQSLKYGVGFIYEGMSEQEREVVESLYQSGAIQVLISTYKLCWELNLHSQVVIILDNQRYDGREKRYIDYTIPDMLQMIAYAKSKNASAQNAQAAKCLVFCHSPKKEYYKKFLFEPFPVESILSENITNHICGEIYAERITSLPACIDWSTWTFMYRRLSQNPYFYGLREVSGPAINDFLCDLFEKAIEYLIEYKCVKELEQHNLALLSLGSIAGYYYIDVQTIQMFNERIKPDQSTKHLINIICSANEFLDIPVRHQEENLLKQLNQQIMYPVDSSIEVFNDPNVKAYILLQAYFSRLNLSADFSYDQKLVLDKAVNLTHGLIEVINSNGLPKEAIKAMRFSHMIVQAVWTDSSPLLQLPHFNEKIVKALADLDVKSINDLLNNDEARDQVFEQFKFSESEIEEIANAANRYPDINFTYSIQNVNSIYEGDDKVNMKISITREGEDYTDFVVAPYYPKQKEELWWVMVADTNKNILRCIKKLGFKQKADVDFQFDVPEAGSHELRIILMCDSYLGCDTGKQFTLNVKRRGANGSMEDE
UniProt Q234T3: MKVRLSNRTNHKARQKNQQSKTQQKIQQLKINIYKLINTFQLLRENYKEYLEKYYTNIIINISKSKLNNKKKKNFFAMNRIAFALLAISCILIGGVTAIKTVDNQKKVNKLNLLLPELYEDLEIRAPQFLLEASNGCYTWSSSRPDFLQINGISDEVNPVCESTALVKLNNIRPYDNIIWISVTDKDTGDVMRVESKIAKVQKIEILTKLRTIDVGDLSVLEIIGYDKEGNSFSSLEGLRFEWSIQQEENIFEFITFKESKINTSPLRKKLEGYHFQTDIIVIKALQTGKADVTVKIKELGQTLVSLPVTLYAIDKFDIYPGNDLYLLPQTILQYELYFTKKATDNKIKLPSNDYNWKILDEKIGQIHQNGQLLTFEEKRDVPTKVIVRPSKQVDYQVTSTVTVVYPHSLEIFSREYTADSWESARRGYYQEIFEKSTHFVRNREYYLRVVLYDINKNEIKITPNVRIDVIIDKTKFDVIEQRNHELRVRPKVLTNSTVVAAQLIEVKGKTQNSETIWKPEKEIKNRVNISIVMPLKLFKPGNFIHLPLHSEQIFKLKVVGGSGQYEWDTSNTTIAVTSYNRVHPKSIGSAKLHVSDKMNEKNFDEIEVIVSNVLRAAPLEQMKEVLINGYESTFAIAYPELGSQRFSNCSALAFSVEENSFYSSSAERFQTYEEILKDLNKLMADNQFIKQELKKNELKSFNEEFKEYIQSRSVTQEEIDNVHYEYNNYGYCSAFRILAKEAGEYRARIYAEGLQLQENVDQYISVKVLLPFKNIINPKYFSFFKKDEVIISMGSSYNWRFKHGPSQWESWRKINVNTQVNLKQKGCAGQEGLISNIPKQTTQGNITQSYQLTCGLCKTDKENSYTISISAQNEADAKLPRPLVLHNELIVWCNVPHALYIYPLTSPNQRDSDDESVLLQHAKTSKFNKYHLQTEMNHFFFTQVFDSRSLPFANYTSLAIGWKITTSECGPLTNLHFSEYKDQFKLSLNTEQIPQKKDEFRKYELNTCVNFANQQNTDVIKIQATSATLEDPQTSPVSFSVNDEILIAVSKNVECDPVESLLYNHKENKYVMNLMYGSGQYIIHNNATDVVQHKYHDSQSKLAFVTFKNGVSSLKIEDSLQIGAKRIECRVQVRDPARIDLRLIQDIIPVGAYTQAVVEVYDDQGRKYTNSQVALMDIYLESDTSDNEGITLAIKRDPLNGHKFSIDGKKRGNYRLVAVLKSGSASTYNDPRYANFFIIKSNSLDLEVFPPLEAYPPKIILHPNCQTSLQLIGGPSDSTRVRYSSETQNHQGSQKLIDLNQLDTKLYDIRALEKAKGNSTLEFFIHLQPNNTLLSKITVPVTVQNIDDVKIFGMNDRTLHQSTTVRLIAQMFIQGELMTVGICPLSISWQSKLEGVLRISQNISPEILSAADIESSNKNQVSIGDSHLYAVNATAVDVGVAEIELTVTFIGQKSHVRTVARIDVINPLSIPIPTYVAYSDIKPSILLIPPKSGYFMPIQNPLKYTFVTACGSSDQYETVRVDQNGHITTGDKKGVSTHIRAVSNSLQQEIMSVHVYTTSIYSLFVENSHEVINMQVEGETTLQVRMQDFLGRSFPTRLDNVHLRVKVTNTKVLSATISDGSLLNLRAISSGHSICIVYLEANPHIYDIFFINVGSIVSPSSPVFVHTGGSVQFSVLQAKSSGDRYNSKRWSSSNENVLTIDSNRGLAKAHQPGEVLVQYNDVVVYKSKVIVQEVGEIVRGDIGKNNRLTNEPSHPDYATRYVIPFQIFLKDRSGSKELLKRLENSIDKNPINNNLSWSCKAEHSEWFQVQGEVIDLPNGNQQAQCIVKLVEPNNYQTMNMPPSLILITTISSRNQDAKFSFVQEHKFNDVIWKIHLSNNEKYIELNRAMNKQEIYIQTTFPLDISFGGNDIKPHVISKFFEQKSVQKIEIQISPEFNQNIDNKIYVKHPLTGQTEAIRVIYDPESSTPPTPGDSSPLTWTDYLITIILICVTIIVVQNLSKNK
UniProt Q245Y3: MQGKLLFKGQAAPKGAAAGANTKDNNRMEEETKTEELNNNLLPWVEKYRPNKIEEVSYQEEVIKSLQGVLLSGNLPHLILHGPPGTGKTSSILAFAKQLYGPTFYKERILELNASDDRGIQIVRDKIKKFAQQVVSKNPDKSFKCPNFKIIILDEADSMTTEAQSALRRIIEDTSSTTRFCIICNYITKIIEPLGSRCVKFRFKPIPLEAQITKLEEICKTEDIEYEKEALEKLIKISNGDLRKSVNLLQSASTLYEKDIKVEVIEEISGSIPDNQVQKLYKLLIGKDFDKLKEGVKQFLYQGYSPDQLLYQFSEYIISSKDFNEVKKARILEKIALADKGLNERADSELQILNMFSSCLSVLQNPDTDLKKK

These are yes or no findings as the source states them, for the method shown. In cells and extracts the contact can be indirect. Here binding means that the protein was enriched with, or labelled near, the bait; the list need not be complete.

B1: TTHERM_01345820 (protein, UniProt Q229R4 1-1227)
chain: MIVKFETKSKRVKGLAFHPIRPWLLSALHTGQIQLWDYRLKTLLDEFVDHDGPVRGIDFHSSQPLFVSGGDDFKIRVWNYKLKKCLFIMKGHLDYIRTVQFHKELPWIVSASDDQTIRIWNWQSRSMIAILTGHSHYVMCAKFHPTQDLIVSCSLDQTLRIWDFSATRKKSMQSNSKTQTQNFGANEVEVHSVLETHERGVNWCDFHPDMNLIVSGADDRKIKLWKFNESRAWDHDSLYGHKNNVSSVVFHPKLNLIISNSEDKTTKVWDLNRRVAISTFTRDNDRFWVIAVHPQNLTFASGCDNGFYVFSLFSDKMPQSLPDPNCLLFGFRKQIKAYNFVKKSITVSKEFESQATIIQENINFFQQNPFETSQAQFLVGTDTKEKSIYKFYLLTYNTNNYDDLQKEREDCKTFTGKGAVFVSKNKIARIKENRTVEIYNFDLSTQSNPISDITDVNRVFSGPIGNVIFSTDESLILYNITTKKEIGKIPMKAEYKVKNAYWNKNNTMVALVAKKSIHVMNKNLGKICTINEKFNVKSLIWHGNVLIYTTINHLKFGLLNGDSGIIKCIDENLKAVKVEGNTFFGINPSAEIVTININTEELQLKKSLFDKNWEKIKYYMDANNKLGNSVISYLYKKNYSGIALNLVNDPKTKFSLAINSGNLEQAFKCAKELKDKEIWAKLAQEAIRQGDHQIIEIAYQNIKEYEKLSFLYTVCGKTEYLKKMLEISQKRGDIMSRFSNSLYLGNIEERIKILADSNQLALAYLMAVAHNKSEYAETLKKGMEQVPDIQQLKQFKMSALVPPKPLVKIIESSPQAQRKWPQNHIPEEYMVVLADQDNQEQQTNLPENAVQQNIVDEEPAAIDDDAKKQDNAKPNFANQVDDEEFEDAGDVWPDVELPDDVDIPDSGPQATEQTPITSNFIQPESKLLKTVKQSLIPSNHIIFGFFENAFSFWKKQLGIYNFDPLLSEAIKVATSSLTVISSIPYVQSSISPIHQDNKPFVCRNLNSLEILLKKAQRFTTEGKFQESENAFYDILHSIPFVKLQKESEINDIKSLIQICFNYIMAMKCELRKNQEQDRTFELQCYMAICNLKPIHRVLTLKQAMSAAYKNKNFIYCSYFAKKLIRVVEANPNAAKPEVLQSAQKFLRACETQGTNAQQIVFDDAWLYDDDATYNIDPSTMKINKNVKEAAKCPYCTAKVDQSLNETICPLCNLGKIGAQVIGIKLDQ
B2: TTHERM_00387080 (protein, UniProt Q23RI2 1-1074)
chain: MHGYFILIIILYLFIYLLIFSVLNNFLNQKMISVDSLLFLANLNQISFQDFQQFIDKKQNKYKKKVNSNLMSRVYNNLEVGDSIENTIPTGFQIRKEQLSDLFQPDSIREGQSLKQIEDIGNVEGLLKILKTHQKKGIDTSDTSISDRIQAFGQNENITKPPKTFFELVMECLEDDVLRILCVACFVSLVIGCIKQGIAEGWIDGIGIFIAVFIIVTITSVNNYMKDKQFRKLNAQVAQRDVGVIRNGETVHISIYSLLVGDIMHIETGEVFPVDGFLIQGSNLVCDESSITGESDPIKKYSIGEHAKNPQPFLISGSKVIEGSGLMVVLAVGQMSRVGKQQALMNEEEEEEKKTPLQEKLDVFVEKIGNIGFKWAFITVLCMILNLLYTIYSSNDLKLLSIDTLSEIVDFIIVGITVVVIAVPEGLPLAVTLSLAYAVGKMKDENNLVRNLISCEIMGGADTICSDKTGTLTENKMKVKKMYALEEVHSEFERQSFDQNFVNILTEGISVNSNAFPKIDDGKFEYNGNKTECALLELAYKFQVNYRDFRPSDNIIKVIPFSSARKRMTTVCRSKKGVQGTLRVYTKGAPEILIEQCSRFVNKNGQIQQISQQFLQKFQDIQQKFSNECLRTLLLAYKEIPYMDADQLPEENQIEQDFIVLGMVGIQDPLRRGIRDSVRVCSNAGVTVRMVTGDNKETAIAISKEAGIISQDYSTSDGGYTVMEGKQFRELVGGLQEIRGEDGKIQRYEVGNIDAFKDIIQDLRVLARSSPEDKFLLVTGLQKCDSVVAVTGDGTNDAPALKKADIGFAMGISGTEVAKEAAGIILIDDNFSSTITAIKWGRNIFDCIRKFLQFQLTINVVALFMAFLGGLVFRESPFNTIQILWVNLMQDTLAALALATEPPNDELLQRKPVKRTDAIVTPNMWKGIILQSLYQIVVLCIILFNGPSLFGVDNGIQNKDWTEENGVHLTMFFNIFVFLSVFNEINCRKLKSSEINVFQGFFNNPLFLFIIVSTIFVQIIMVQLGGRVAKCSPLSLEQNIICILVGASSVAAGIVIKLLPSSLDRLLNHTNPFQ
B3: TTHERM_00295120 (protein, UniProt I7LUE5 1-774)
chain: MQEDVDQERLLDQARQKVKEQAYFMKKALDQVNLRDGLRHASTMLEELGVREQVQLNPKNYYIVFMQIFDELRTLEQYFKEEYRRGRKMMDLYESVQHATKLIPRLYLLITVGSVYIQTHEVGAKEILLDLLEMIKAVQHPTRGLFLRYYFLKMCKDRLPDKDSEYFGEGGDVDDCINIITRNLNEMNKLWIRMSGKSRDKPRREKERVDLKITVGENIHRLSSLEGVNSEIYQTTVLPKLLDLIVSSKDAISQNYLIDCVISCFPDEYHLITLHDILGVCTTQLEPKVDIKSIFISLMDRLAEYALRSEDVQATFNSDNHIYSMFKNNIDNLVERSSSTEFKNVLDLMVAFLKFSLRCYSSNGDYVNQILKSCVKICEKQHEQDFQDDCLKNIVKFLTMPLETMSLTILTMDEYPNLMKYLPFSKRRQVAQKITQAVVSLKRNINDQKIAEQLVLFIHPLLVTEKDYIEVSQNDFEEEQNLVCKMLHLVHHDDAQEYWNILRLFFDNFQKGEIKRQKFTYPTMFYALAKFTRSVYEKNQQNEVLNYNNIFEIMKQLIETLAQEYHSLALKLYIQFILIINEFDHEKTLDEFTYDIATTALTIYQDDLGDADIKLQAIQVISGALNKVSCLSEENYDTLSSNTTQYSAKLLKKQDQVLSILNCTHLFHGELIKDEESVKKCLKKAIKIAQTLLKTQNKSINLYIYILNRYFVFWNYVQFDAAEVQELINIINEKIGTLEKSAETDALQKYWRNTVQYIKSKQEQNIAGFAELHV
B4: TTHERM_00463420 (protein, UniProt Q23PU1 1-859)
chain: MLRSEKMSLHCLLMPRESAWEVLNDLGTLDKVHFVDCEEDVPQFNRPFYQQVRRCDESLQKLLWIENEMQKFYNFYNQVIKSNNQVNIDYCGDLASFHEYLKKDVESRRINEQAYFLQIENEINQKHKFLEQLIHNFNSVITYRNQLVEKKHVLTEASRVLNVNQLNQDNQIPNPDRVSLNFLAGVINADDEVRFHKSAFRVSRGNIWKHFKQIDKSMQRDGYKLLNIKGQRDHDTSELTDPYNSVQKTIFILAYASGQNSSLDRKLRRICEGFHADVFNIQYSNISKDLKETEEQIRNQNLTVQLSEKSINEYFDFYQKSIKLQSGDQVVDVCSYIEYVRLFLHKEKTIQHNLNYLVQSSQTFCKGLIWVPEEDEGIVQRRVEQLTQKKSNSVQVAQLYKLSNYTIDPPTKFKSNDFTIPFQEIVNTYGIPRYREINPALFAISTFPYLFGMMFGDIGHGALLFTIGLYLMSCKIDPKRPSAMDGLVQARYLITLMGLFALYNGLIYNDFMSLPLNLFGSCYLLADKNVVLTHKTSKQCVYPFGIDPVWGVAKNKLSVYNSLKMKTSVVFGVFQMLIGIFLKGLNAINNISFVDFFFEFIPQVVFMCCTFGYMVFLIFMKWMTDYSQNTSKAPSILTYMLDLGLSGGGVGHQQELYKGQGVDQPYLLIAALISVPIMLLAKPIIHQMQHNSHQQHQNAEGFVPFQDDIEENRRQADNFIEKGLKLHKNEKPHEFSEEFVHQVIETIEFVLGSISHTASYLRLWALSLAHSQLAEVFFEKTLKGQIESGSTIGILVGFIVFAMITFAVLMCMDVMECFLHTLRLHWVEFQSKFYKADGYLFKPFSVNNVLSVAAVEKRY

The assay has as its target Msh6^Tt-3HA (T. thermophila) (UniProt Q23K54). The experiment in a line: affinity purification with mass spectrometry; 3 h of conjugation; cells lysed by sonication on ice in PBS; Msh6^Tt-3HA precipitated by its HA tag (Pierce HA-Tagged Magnetic IP/Co-IP kit), washes TBS and TBS-T; LC-MS/MS, MaxQuant iBAQ; WT lysate without HA tag as blank control; hits: iBAQ WT/iBAQ Msh6^Tt-3HA <= 0.05.
Consider Tpa1 (from UniProt Q245Y8), for which the binding result is recorded as “binds”.
The entry for “DYH3 dynein heavy chain outer arm protein (from UniProt Q22A67 1-4620)” is “binds”.
As for Dmc1 (from UniProt I7MAA0), the binding entry was “binds”.
As to Drh34 (from UniProt I7MM90), the binding entry was “binds”.
With “TTHERM_00101160 (from UniProt Q234T3 1-2004)”, the binding result is reported as “binds”.
On to “replication factor C subunit Rfc2 (from UniProt Q245Y3)”, for which the binding entry is “binds”.
On to “TTHERM_00313630 (from UniProt Q22KB8 1-1566)”, for which the binding result is recorded as “binds”.
The entry for Dyh7 (from UniProt Q23TU2) is “binds”.
Consider B1, for which the binding result was “binds”.
Take B2: the binding result is on record as “binds”.
As to B3, the binding result is listed as “binds”.
The entry for B4 is “binds”.
